Several values for one entry are separate records, joined by “and”; a condition that tells them apart may be missing. Equal entries are not always repeated. Structures can show the parent of a compound that is named as a salt. ± gives the standard deviation of the averaged measurements. Some of the results follow. The data scatter; read single values as rough.
The compounds below were run on Salmonella enterica serovar Typhimurium ST313 D23580 (assay: normalized bacterial growth (OD600 20 h minus 0 h, interquartile-mean normalized) (fraction of plate interquartile mean); higher = more bacterial growth (less inhibition)). Settings: LPM (pH 5.8, low phosphate, low Mg2+), concentration: 10 µM, temperature: 37 °C.
Compound `CC(C)=CCC/C(C)=C/CC/C(C)=C/CO` has a normalized bacterial growth of 0.655.
`COc1c(-c2ccccc2)oc2c(ccc3occc32)c1=O` showed a normalized bacterial growth of 0.863.
In the case of `Cc1c(C(=O)O)c(O)cc2c1C(=O)c1c(O)c([C@@H]3O[C@H](CO)[C@@H](O)[C@H](O)[C@H]3O)c(O)c(O)c1C2=O`, the normalized bacterial growth is reported as 1.05 ± 0.06.
In the case of `Cc1ccccc1OCC(O)CO` (stereo unspecified), the normalized bacterial growth is reported as 1.22.
Compound `CC1=C(CC(=O)O)c2cc(F)ccc2/C1=C\c1ccc(S(C)(=O)=O)cc1` [Sulindac sulfone] has a normalized bacterial growth of 1.22.
With `NC(N)=NC(=O)c1nc(Cl)c(N2CCCCCC2)nc1N` ["5-(N,N-hexamethylene)amiloride"] the normalized bacterial growth was 0.743.
For `c1ccc2c(c1)CN1CCCC1=N2`, the normalized bacterial growth was 1.33 and 0.475.
`O=C1CN(/N=C/c2ccc([N+](=O)[O-])o2)C(=O)N1` was tested, and the normalized bacterial growth was 1.07.
In the case of `O=C1O/C(=C/Br)CCC1c1cccc2ccccc12` (stereo unspecified) [Bromoenol lactone], the normalized bacterial growth is reported as 0.733.
With `Nc1nc(N)c2nc(CNc3ccc(C(=O)N[C@@H](CCC(=O)O)C(=O)O)cc3)cnc2n1` [Aminopterin] the normalized bacterial growth was 1.15.
With `CC(C(=O)O)c1cccc(C(=O)c2ccccc2)c1` (stereo unspecified) [Ketoprofen] the normalized bacterial growth was 1.06.
In the case of `CC[C@H](NC(=O)c1c(C)c(-c2ccccc2)nc2ccccc12)c1ccccc1`, the normalized bacterial growth is reported as 0.829.
For `N/C(=N\C(=O)c1nc(Cl)c(N)nc1N)NCc1ccc(Cl)c(Cl)c1` ["3',4'-Dichlorobenzamil"], the normalized bacterial growth was 0.873.
`NCC(O)(CS(=O)(=O)O)c1ccc(Cl)cc1` (stereo unspecified) [2-Hydroxysaclofen] gave a normalized bacterial growth of 1.04.
In the case of `O=NN(CCCl)C(=O)NCCCl` [Carmustine], the normalized bacterial growth is reported as 1.21.
`CCOC(=O)c1ncn2c1CN(C)C(=O)c1cc(F)ccc1-2` [Flumazenil] showed a normalized bacterial growth of 0.944.
With `CCCC1O[C@@H]2C[C@H]3[C@@H]4CCC5=CC(=O)C=C[C@]5(C)[C@H]4[C@@H](O)C[C@]3(C)[C@]2(C(=O)CO)O1` (stereo partly specified) the normalized bacterial growth was 1.24.
Work on `CCCC1O[C@@H]2C[C@H]3[C@@H]4CCC5=CC(=O)C=C[C@]5(C)[C@H]4[C@@H](O)C[C@]3(C)[C@]2(C(=O)CO)O1` (stereo partly specified) [Budesonide] yielded a normalized bacterial growth of 0.925.
With `NCCC1CCCC(CCN)N1` (stereo unspecified) ["MDL 26,630 trihydrochloride"] the normalized bacterial growth was 0.903.
`CCCCCCCCCCCCCCCCCCOCC(COP(=O)([O-])OCC[N+](C)(C)C)OC` (stereo unspecified) gave a normalized bacterial growth of 1.32.
`CN1[C@@H]2CC[C@H]1CC(OC(=O)c1c[nH]c3ccccc13)C2` (stereo partly specified) [3-Tropanyl-indole-3-carboxylate hydrochloride] showed a normalized bacterial growth of 1.07.
`COc1cc(C(O)CO)ccc1OS(=O)(=O)O` (stereo unspecified) [MHPG sulfate potassium] gave a normalized bacterial growth of 1.08.
`CC(C)c1c(O)ccc2c1CC[C@H]1C(C)(C)CCC[C@]21C` showed a normalized bacterial growth of 1.08.
`COC(=O)c1c(C)[nH]c(C)c1C(=O)c1ccccc1Cc1ccccc1` was tested, and the normalized bacterial growth was 1.05.
`NCCSSCCN` [Cystamine dihydrochloride] was tested, and the normalized bacterial growth was 1.12.
In the case of `Nc1nc2c(ncn2COCCO)c(=O)[nH]1` [Acyclovir], the normalized bacterial growth is reported as 1.
In the case of `CC1(C)C(=O)[C@H]2C[C@]3(O)C4=CC(=O)O[C@@H](c5ccoc5)[C@@]4(C)CCC3[C@](C)(C2=O)[C@H]1CC(=O)O` (stereo partly specified), the normalized bacterial growth is reported as 0.872.
In the case of `CCCCCN(CCCCC)C(=O)C(CCC(=O)O)NC(=O)c1ccc(Cl)c(Cl)c1` (stereo unspecified) [Lorglumide sodium], the normalized bacterial growth is reported as 0.696.
Compound `O=c1cc(-c2ccccc2O)oc2cc(O)ccc12` has a normalized bacterial growth of 1.05.
For `CC(C)NCC(O)c1ccc(O)c(O)c1` (stereo unspecified) [()-Isoproterenol hydrochloride], the normalized bacterial growth was 1.18.
Compound `CC(C)NCC(O)c1ccc(O)c(O)c1` (stereo not drawn) [S(+)-Isoproterenol (+)-bitartrate] has a normalized bacterial growth of 1.01.
`C#CCCCCCCCCCCCC(O)CC(O)COC(C)=O` (stereo unspecified) gave a normalized bacterial growth of 0.512.
With `CC1(C)C(=O)C=CC2(C)C1C=CC1(C)C2CCC2(C)C(c3ccoc3)OC(=O)C3OC312` (stereo unspecified) the normalized bacterial growth was 0.798.
`CC(=O)OCC(=O)[C@@]1(O)[C@H](C)C[C@H]2[C@@H]3CCC4=CC(=O)C=C[C@]4(C)[C@@]3(F)[C@@H](O)C[C@@]21C` [Dexamethasone acetate] showed a normalized bacterial growth of 1.1.
Work on `CC(=O)OCC(=O)[C@@]1(O)[C@H](C)C[C@H]2[C@@H]3CCC4=CC(=O)C=C[C@]4(C)[C@@]3(F)[C@@H](O)C[C@@]21C` yielded a normalized bacterial growth of 0.999.
`COc1c(N2C[C@@H]3CCCN[C@@H]3C2)c(F)cc2c(=O)c(C(=O)O)cn(C3CC3)c12` showed a normalized bacterial growth of 0.092.
Work on `COc1ccc(C(=O)c2ccccc2)c(O)c1` yielded a normalized bacterial growth of 0.796.
`COc1ccc(C(=O)CC(=O)c2ccc(C(C)(C)C)cc2)cc1` showed a normalized bacterial growth of 1.06.
`Cc1nc(N=Nc2cc([N+](=O)[O-])ccc2Cl)c(COP(=O)(O)O)c(C=O)c1O` [MRS 2211 sodium salt hydrate] was tested, and the normalized bacterial growth was 0.771.
`CC1(C)CC23C(=O)CCC(O)C2(C)CCC13` (stereo unspecified) was tested, and the normalized bacterial growth was 0.941.
`CCC(C(N)=O)c1ccccc1` (stereo unspecified) showed a normalized bacterial growth of 0.903.
